In the supplement of paper PMC12823440, “Inhibitors supercharge kinase turnover through native proteolytic circuits” (Nature, 2025):
Counter-ions that a name gives are not always drawn. The list shows a part of the results. The calls rarely recur for the same compound in another form.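 Kinases, fused to nanoluciferase, were expressed in K562 cells; luminescence was measured every 4 h from 2 to 18 h as percent of control (DMSO = 100%, positive control = 0%). A time point is decreased if signal falls significantly (2 sigma). Hits were called by the authors by a rule that is not shown; the count of time points alone does not decide it.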

By UniProt entry, the sequences of proteins in these tests, tags left out. Where a name states a change or a piece, a line headed by the entry shows the natural chain unless it says otherwise.
UniProt P28482, whole entry: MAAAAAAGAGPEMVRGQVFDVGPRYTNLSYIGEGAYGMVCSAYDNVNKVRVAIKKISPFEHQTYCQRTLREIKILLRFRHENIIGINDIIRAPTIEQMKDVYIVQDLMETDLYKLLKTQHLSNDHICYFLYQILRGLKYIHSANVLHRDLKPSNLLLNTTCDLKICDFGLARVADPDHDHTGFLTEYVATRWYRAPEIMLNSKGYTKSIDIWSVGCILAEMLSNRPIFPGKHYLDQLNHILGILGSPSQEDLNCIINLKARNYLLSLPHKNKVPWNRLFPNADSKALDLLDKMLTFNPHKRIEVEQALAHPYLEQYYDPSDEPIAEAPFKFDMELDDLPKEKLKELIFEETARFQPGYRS
UniProt P31152, whole entry: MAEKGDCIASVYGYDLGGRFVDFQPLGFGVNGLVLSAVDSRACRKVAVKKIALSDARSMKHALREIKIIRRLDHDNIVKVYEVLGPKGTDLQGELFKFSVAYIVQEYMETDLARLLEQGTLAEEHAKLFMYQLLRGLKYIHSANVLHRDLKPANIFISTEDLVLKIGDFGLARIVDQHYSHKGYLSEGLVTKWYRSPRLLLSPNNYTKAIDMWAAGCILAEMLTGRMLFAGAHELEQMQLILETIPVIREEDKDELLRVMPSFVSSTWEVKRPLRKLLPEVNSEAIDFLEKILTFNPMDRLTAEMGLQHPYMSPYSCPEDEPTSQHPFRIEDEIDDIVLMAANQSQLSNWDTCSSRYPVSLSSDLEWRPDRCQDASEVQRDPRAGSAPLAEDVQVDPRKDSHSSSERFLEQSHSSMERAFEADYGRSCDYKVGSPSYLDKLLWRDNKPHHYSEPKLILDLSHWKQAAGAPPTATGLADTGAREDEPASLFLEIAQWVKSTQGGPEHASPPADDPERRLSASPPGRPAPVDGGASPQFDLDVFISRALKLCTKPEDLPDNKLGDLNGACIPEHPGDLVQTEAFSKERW
UniProt P49137, whole entry, looked up: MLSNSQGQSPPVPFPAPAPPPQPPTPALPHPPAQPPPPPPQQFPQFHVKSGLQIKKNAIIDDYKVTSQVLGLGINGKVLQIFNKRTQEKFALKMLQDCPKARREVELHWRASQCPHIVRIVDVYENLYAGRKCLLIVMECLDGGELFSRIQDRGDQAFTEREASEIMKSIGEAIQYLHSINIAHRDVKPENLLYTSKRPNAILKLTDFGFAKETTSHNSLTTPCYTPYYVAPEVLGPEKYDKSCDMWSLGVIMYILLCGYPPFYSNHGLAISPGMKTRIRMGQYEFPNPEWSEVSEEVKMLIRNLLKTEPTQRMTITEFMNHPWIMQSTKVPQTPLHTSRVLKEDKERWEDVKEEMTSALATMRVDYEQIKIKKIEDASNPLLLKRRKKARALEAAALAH
UniProt Q9BUB5: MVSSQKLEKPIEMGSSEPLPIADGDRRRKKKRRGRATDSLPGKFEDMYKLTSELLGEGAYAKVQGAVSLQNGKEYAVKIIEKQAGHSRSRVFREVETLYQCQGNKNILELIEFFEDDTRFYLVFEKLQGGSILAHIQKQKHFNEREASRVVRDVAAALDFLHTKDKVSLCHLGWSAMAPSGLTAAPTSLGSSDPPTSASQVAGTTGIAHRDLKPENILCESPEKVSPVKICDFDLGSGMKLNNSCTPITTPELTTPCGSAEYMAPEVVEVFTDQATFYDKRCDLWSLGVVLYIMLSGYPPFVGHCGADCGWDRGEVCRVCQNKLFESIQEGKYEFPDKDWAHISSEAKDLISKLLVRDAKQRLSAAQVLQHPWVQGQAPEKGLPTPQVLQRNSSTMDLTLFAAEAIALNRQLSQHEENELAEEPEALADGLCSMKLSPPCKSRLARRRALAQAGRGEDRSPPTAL
UniProt Q16288, whole entry, looked up: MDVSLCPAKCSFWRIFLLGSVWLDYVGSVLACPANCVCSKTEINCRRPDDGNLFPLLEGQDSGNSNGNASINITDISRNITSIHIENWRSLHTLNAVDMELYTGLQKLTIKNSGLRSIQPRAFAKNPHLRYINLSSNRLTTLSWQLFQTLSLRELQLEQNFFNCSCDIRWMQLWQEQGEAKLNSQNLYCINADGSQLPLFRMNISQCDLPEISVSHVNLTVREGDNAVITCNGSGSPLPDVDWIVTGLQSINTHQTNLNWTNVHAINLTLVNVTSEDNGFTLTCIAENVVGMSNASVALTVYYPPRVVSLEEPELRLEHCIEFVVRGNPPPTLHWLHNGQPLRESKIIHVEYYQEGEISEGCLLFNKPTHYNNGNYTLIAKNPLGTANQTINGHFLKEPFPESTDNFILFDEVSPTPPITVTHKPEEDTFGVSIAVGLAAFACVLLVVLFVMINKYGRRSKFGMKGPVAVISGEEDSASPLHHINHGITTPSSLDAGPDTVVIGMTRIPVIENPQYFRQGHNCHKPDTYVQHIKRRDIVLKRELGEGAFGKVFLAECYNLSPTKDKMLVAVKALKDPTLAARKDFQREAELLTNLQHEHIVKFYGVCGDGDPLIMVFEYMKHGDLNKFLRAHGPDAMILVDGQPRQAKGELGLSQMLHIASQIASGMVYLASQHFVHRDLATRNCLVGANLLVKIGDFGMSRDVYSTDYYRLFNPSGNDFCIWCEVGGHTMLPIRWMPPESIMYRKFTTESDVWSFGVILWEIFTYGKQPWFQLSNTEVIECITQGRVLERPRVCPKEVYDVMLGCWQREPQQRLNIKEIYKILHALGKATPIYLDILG
UniProt O96013: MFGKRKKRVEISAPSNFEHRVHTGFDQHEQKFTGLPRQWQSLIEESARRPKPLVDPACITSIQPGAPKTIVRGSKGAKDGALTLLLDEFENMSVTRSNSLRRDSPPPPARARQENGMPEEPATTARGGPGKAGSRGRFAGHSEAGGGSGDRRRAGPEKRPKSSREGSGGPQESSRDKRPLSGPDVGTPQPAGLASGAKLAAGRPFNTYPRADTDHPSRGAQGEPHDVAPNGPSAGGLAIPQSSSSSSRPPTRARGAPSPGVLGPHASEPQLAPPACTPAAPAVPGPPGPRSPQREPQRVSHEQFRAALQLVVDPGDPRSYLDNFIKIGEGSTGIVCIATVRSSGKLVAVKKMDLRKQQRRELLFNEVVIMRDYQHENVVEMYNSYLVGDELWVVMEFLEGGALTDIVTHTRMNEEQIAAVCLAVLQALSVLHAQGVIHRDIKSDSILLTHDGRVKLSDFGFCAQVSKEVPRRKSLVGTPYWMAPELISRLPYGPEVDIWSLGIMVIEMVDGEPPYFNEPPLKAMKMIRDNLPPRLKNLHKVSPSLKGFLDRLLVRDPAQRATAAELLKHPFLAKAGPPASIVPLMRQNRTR
UniProt Q96KB5: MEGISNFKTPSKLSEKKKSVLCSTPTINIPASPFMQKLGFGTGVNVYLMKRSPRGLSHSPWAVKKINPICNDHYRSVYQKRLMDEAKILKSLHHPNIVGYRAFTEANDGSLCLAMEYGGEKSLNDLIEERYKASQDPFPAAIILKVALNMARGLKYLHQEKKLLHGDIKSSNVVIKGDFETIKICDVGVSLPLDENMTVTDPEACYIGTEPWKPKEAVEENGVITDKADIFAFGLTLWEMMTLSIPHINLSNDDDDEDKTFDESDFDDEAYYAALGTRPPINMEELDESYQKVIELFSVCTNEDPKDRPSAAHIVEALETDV
UniProt P09619, whole entry: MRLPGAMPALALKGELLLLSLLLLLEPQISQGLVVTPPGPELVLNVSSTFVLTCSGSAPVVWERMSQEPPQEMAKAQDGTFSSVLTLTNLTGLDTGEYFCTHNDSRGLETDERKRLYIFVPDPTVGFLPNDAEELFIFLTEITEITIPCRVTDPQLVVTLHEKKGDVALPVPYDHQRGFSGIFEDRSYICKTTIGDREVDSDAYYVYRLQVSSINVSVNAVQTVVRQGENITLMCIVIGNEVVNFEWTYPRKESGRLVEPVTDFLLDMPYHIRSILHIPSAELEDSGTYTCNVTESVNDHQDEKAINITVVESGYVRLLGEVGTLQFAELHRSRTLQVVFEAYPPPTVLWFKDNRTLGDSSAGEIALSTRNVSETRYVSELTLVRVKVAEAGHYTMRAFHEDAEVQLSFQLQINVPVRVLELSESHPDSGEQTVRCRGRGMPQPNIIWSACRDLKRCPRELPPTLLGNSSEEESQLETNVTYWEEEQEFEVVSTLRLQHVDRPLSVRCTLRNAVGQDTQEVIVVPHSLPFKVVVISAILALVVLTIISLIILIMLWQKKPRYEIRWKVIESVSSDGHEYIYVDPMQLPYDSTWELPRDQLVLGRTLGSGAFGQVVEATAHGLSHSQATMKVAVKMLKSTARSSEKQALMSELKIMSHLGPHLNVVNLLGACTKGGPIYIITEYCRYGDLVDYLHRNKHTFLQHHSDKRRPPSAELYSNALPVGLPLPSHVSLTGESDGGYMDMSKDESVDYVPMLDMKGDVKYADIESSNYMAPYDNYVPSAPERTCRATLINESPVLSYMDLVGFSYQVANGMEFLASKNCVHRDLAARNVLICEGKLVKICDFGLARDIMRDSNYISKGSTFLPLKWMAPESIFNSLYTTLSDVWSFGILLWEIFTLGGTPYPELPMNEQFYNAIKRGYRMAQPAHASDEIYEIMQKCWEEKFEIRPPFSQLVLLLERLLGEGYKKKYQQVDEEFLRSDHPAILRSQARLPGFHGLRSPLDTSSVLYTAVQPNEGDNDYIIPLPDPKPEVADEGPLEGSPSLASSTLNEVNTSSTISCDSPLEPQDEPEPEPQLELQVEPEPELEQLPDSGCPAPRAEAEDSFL
UniProt Q15118, whole entry, looked up: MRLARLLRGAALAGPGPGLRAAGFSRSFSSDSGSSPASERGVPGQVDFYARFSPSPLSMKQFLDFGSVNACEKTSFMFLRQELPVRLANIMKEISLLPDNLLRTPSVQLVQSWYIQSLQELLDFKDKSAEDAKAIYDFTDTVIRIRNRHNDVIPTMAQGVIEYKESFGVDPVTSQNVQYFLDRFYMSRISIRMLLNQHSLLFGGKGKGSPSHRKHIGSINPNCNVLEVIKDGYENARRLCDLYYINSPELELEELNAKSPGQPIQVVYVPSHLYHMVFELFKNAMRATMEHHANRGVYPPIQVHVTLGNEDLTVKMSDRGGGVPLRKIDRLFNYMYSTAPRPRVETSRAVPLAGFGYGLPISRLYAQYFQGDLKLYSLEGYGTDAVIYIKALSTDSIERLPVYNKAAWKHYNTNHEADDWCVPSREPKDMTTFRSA
UniProt Q16620, whole entry, looked up: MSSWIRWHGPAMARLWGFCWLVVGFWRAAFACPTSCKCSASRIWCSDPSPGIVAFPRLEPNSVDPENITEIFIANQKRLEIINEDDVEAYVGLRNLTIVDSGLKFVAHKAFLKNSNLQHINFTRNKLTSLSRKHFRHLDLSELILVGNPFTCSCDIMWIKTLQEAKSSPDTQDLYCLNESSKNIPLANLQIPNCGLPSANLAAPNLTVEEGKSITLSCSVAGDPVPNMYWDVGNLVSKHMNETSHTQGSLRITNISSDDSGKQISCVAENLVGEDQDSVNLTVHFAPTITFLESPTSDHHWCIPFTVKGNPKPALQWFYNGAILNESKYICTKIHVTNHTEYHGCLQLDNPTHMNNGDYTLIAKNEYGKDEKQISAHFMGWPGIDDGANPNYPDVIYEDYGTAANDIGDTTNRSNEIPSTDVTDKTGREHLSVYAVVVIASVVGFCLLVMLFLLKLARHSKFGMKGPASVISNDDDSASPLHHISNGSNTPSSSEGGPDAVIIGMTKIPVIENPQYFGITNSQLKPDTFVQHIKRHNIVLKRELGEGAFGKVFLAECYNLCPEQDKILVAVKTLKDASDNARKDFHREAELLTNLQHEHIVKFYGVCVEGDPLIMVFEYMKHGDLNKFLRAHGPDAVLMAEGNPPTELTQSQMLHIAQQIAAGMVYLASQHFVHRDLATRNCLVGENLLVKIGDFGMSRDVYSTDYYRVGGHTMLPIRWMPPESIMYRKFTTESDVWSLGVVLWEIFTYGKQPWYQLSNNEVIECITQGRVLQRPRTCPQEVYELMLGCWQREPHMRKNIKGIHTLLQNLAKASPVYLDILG

How the values were obtained:
Experiment in all cases: kinase-Nluc reporter destabilization hit call (1 = scored as downregulated) (binary); higher = compound decreases kinase abundance
Conditions in all cases: K562; 2-18 h
[1] = biological target: MAPK1 (UniProt P28482)
[2] = biological target: MAPK4 (UniProt P31152)
[3] = biological target: MAPKAPK2 (UniProt P49137)
[4] = biological target: MKNK1 (UniProt Q9BUB5)
[5] = biological target: NTRK3 (UniProt Q16288)
[6] = biological target: PAK4 (UniProt O96013)
[7] = biological target: PBK (UniProt Q96KB5)
[8] = biological target: PDGFRB (UniProt P09619)
[9] = biological target: PDK1 (UniProt Q15118)
[10] = biological target: NTRK2 (UniProt Q16620)

Measured: kinase-Nluc reporter destabilization hit call

CCC(F)(F)c1cc(N2CCC(S(C)(=O)=O)CC2)nc2sc(C(N)=O)c(N)c12 (10 µM)
inactive: [1] 0 | [2] 0 | [3] 0 | [4] 0 | [5] 0 | [6] 0 | [7] 0 | [8] 0 | [9] 0

CCOC(=O)c1c(N2CCc3ccc(OC)cc3C2)oc(C=C2C=Nc3ncccc32)c1O (10 µM)
inactive: [1] 0 | [2] 0 | [3] 0 | [4] 0 | [5] 0 | [6] 0 | [7] 0 | [8] 0 | [9] 0

COC(=O)N1CCN(C2CCC(Nc3nc(Nc4cnn(C)c4)nc4ccc(CC#N)nc34)CC2)CC1 (stereo not given) (10 µM)
inactive: [1] 0 | [2] 0 | [3] 0 | [4] 0 | [5] 0 | [6] 0 | [7] 0 | [8] 0 | [9] 0

CNCc1ccccc1Sc1cccc2ccccc12 [IFN alpha-IFNAR-IN-1 (hydrochloride)] (10 µM)
inactive: [1] 0 | [2] 0 | [3] 0 | [4] 0 | [5] 0 | [6] 0 | [7] 0 | [8] 0 | [9] 0

C=CC(=O)Nc1cc(Nc2nccc(-c3cn(C)c4ccccc34)n2)c(OCC(F)(F)F)nc1N(C)CCNC [AST5902  (trimesylate)] (2.5 µM)
inactive: [1] 0 | [2] 0 | [3] 0 | [4] 0 | [5] 0 | [6] 0 | [7] 0 | [8] 0 | [9] 0

N#Cc1cc(-c2ccnc(Nc3ccc(N4CCOCC4)cc3)n2)ccc1OC1CCOCC1 (10 µM)
inactive: [1] 0 | [2] 0 | [3] 0 | [4] 0 | [5] 0 | [6] 0 | [7] 0 | [8] 0 | [9] 0

O=C(COc1ccc(Cl)cc1)NC1CCC(NC(=O)COc2ccc(Cl)cc2)CC1 (stereo not drawn) [ISRIB (trans-isomer)] (10 µM)
inactive: [1] 0 | [2] 0 | [3] 0 | [4] 0 | [5] 0 | [6] 0 | [7] 0 | [8] 0 | [9] 0

N#CC(=C(/N)Sc1ccccc1N)/C(C#N)=C(\N)Sc1ccccc1N (10 µM)
inactive: [1] 0 | [2] 0 | [3] 0 | [4] 0 | [5] 0 | [6] 0 | [7] 0 | [8] 0 | [9] 0

CCCCNc1ncc2c(-c3ccc(F)cc3)nn(CC3CCC(N)CC3)c2n1 (stereo not given) (2.5 µM)
inactive: [1] 0 | [2] 0 | [3] 0 | [4] 0 | [5] 0 | [6] 0 | [7] 0 | [8] 0 | [9] 0

COc1ccc(CCNCc2ccc(OCc3ccc(Cl)nc3)c(OC)c2)cc1OC [SBE13 (Hydrochloride)] (10 µM)
inactive: [1] 0 | [2] 0 | [3] 0 | [4] 0 | [5] 0 | [6] 0 | [7] 0 | [8] 0 | [9] 0

O=C1NC(=O)C(Cc2c[nH]c3c(Cl)cccc23)N1 (stereo not given) [Necroptosis-IN-1] (10 µM)
inactive: [1] 0 | [2] 0 | [3] 0 | [4] 0 | [5] 0 | [6] 0 | [7] 0 | [8] 0 | [9] 0

CC(C)(CCCCCC(O)CCCCCC(C)(C)C(=O)O)C(=O)O [Bempedoic acid] (10 µM)
inactive: [1] 0 | [2] 0 | [3] 0 | [4] 0 | [5] 0 | [6] 0 | [7] 0 | [8] 0 | [9] 0

Cc1cc(N2CCOCC2)ccc1Nc1nc(NC2CCCCC2)c2[nH]cnc2n1 (10 µM)
inactive: [1] 0 | [2] 0 | [3] 0 | [4] 0 | [5] 0 | [6] 0 | [7] 0 | [8] 0 | [9] 0

Cc1cccc(CC(=O)N2CCc3c2ccc(-c2cn(C)c4ncnc(N)c24)c3F)n1 (10 µM)
inactive: [1] 0 | [2] 0 | [3] 0 | [4] 0 | [5] 0 | [6] 0 | [7] 0 | [8] 0 | [9] 0

COc1cccc(-c2cc(=O)c3ccccc3o2)c1N (10 µM)
inactive: [1] 0 | [2] 0 | [3] 0 | [4] 0 | [5] 0 | [6] 0 | [7] 0 | [8] 0 | [9] 0

Fc1ccc(-c2nc3n(c2-c2ccncc2)CCS3)cc1 (10 µM)
inactive: [1] 0 | [2] 0 | [3] 0 | [4] 0 | [5] 0 | [6] 0 | [7] 0 | [8] 0 | [9] 0

COc1cc2c(cc1OC)[C@@H]1C(=O)c3ccc4c(c3O[C@@H]1CO2)C=CC(C)(C)O4 [Deguelin] (10 µM)
inactive: [1] 0 | [2] 0 | [3] 0 | [4] 0 | [5] 0 | [6] 0 | [7] 0 | [8] 0 | [9] 0

Nc1ccc(O)c(C(=O)O)c1 [5-Aminosalicylic Acid] (10 µM)
inactive: [1] 0 | [2] 0 | [3] 0 | [4] 0 | [5] 0 | [6] 0 | [7] 0 | [8] 0 | [9] 0

C=CC(=O)N1CCC(c2ccc(C(N)=O)c(-c3ccc(Oc4ccccc4)cc3)n2)CC1 [Orelabrutinib] (2.5 µM)
inactive: [1] 0 | [2] 0 | [3] 0 | [4] 0 | [5] 0 | [6] 0 | [7] 0 | [8] 0 | [9] 0

COc1cc2nc(-c3cc(F)ccc3O)nc(N[C@@H]3CNC[C@H]3C(C)(C)O)c2cc1OC (2.5 µM)
inactive: [1] 0 | [2] 0 | [3] 0 | [4] 0 | [5] 0 | [6] 0 | [7] 0 | [8] 0 | [9] 0

CN(C)CCn1cc2cc(NC(=O)c3cccc(C(F)(F)F)n3)c(C(C)(C)O)cc2n1 (10 µM)
inactive: [1] 0 | [2] 0 | [3] 0 | [4] 0 | [5] 0 | [6] 0 | [7] 0 | [8] 0 | [9] 0

O=C(Nc1ccccc1C(=O)NC1CCCCNC1=O)c1cc2ccccc2s1 (stereo not given) (10 µM)
inactive: [1] 0 | [2] 0 | [3] 0 | [4] 0 | [5] 0 | [6] 0 | [7] 0 | [8] 0 | [9] 0

CC(C)(Oc1ccc(Cl)cc1)C(=O)Nc1ccc(OCc2ccc(C#N)cc2)cc1 [AMPK activator 4] (10 µM)
inactive: [1] 0 | [2] 0 | [3] 0 | [4] 0 | [5] 0 | [6] 0 | [7] 0 | [8] 0 | [9] 0

O=C(Nc1ccc(Cl)cc1)C1CN(C(=O)c2cccc(-c3ccco3)c2)CC(F)(F)C1 (stereo not given) (2.5 µM)
inactive: [1] 0 | [2] 0 | [3] 0 | [4] 0 | [5] 0 | [6] 0 | [7] 0 | [8] 0 | [9] 0

Cc1ncsc1-c1ccc(CNC(=O)[C@@H]2C[C@@H](O)CN2C(=O)[C@@H](NC(=O)COCCOc2ccc(-c3cc(Nc4ccc(OC(F)(F)F)cc4)ncn3)cc2)C(C)(C)C)cc1 (2.5 µM)
inactive: [1] 0 | [2] 0 | [3] 0 | [4] 0 | [5] 0 | [6] 0 | [7] 0 | [8] 0 | [9] 0

CCOc1cc(N2CCC(O)CC2)ccc1Nc1ncc2c(n1)N(C1CCCC1)CCC(=O)N2C (2.5 µM)
inactive: [1] 0 | [2] 0 | [3] 0 | [4] 0 | [5] 0 | [6] 0 | [7] 0 | [8] 0 | [9] 0

Cn1cc(C2=C(c3ccc(Cl)cc3Cl)C(=O)NC2=O)c2ccccc21 (10 µM)
inactive: [1] 0 | [2] 0 | [3] 0 | [4] 0 | [5] 0 | [6] 0 | [7] 0 | [8] 0 | [9] 0

Cc1cnc(Nc2ccc(F)cc2Cl)nc1-c1c[nH]c(C(=O)N[C@H](CO)c2cccc(Cl)c2)c1 (10 µM)
inactive: [2] 0 | [3] 0 | [4] 0 | [10] 0 | [5] 0 | [6] 0 | [7] 0 | [8] 0 | [9] 0

COc1cc2nnc(C(N)=O)c(Nc3ccc(C)cc3F)c2cc1N1CCN(CCO)CC1 (2.5 µM)
inactive: [1] 0 | [2] 0 | [3] 0 | [4] 0 | [5] 0 | [6] 0 | [7] 0 | [8] 0 | [9] 0

Nc1ccc(Sc2nc3ccccc3s2)c(Cl)c1 [KRAS inhibitor-9] (10 µM)
inactive: [1] 0 | [2] 0 | [3] 0 | [4] 0 | [5] 0 | [6] 0 | [7] 0 | [8] 0 | [9] 0
